# According to the M2OR odorant receptor database:
# Chains of the proteins cited; added tags and fusions are not shown. A line that says so, or that is headed by a name, gives the form on record, which may keep a tag or linker.
# OR5H1, as listed by the source: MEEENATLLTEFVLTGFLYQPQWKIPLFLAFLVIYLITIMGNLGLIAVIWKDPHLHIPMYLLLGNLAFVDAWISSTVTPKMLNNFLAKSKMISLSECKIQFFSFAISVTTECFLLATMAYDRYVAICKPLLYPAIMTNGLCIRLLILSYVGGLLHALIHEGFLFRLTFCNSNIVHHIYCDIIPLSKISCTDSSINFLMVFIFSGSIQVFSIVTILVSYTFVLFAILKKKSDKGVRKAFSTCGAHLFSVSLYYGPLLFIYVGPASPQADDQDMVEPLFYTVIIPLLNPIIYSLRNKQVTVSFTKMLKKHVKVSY
# Changes are numbered by the printed parent chain. This is a selection; strong and weak results do not stand in their true shares. Calls are pooled over several reports, among them a noisy single-well screen. This is one part of the list.
# Tests used:
# Settings in all cases: stereoisomer not certain
# [1] = system: T1, OR5DG
# T1 sequence (whole entry): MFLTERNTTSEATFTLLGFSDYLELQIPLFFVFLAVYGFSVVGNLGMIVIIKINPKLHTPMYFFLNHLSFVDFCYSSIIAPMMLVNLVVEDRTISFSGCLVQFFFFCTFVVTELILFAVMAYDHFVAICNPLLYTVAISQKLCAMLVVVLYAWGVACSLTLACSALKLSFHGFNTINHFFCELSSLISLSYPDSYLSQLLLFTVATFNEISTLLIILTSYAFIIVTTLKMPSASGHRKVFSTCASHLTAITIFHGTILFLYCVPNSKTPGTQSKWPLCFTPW
# Procedure, shortened: (§1)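 Transient luciferase assays in mammalian cell lines were common, though methods varied by source. The values come from published papers and their supplementary material, with extra details from the original authors when needed. Responsive refers to a measured signal the original authors judged statistically different from baseline, and non-responsive (inactive) to the remainder.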
# [2] = system: T2, OR5DI
# T2 sequence (whole entry): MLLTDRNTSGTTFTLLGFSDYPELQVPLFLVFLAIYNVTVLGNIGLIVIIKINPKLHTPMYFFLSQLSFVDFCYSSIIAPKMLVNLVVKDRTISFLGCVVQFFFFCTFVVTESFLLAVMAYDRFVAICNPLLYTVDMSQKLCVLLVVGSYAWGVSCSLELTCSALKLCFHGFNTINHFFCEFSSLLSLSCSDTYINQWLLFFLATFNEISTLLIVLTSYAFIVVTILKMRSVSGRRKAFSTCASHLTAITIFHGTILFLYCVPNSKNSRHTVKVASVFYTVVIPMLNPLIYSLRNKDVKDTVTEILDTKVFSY
# Procedure, shortened: as §1
# [3] = system: T3, OR5F1
# T3 sequence (whole entry): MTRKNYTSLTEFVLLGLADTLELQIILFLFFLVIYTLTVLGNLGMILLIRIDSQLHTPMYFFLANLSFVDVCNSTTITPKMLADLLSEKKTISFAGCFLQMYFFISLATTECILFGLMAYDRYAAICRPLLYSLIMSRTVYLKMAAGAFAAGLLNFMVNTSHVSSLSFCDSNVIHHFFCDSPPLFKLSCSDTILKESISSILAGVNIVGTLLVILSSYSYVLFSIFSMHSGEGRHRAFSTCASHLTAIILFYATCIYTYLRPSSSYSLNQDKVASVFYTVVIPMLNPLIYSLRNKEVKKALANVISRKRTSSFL
# Procedure, shortened: as §1
# [4] = target: T4, OR5H1 (Homo sapiens) (UniProt A6NKK0)
# T4 sequence (whole entry): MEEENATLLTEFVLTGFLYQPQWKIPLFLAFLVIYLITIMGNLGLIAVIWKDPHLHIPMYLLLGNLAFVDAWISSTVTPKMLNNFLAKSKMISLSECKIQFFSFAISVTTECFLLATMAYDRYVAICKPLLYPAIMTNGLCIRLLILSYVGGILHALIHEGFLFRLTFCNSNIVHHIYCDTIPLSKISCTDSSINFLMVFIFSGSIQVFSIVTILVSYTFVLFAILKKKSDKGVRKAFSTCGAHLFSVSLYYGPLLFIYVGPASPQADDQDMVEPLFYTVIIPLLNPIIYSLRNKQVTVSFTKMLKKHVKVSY
# Procedure, shortened: as §1
# [5] = system: T5, OR5H1
# T5 sequence (whole entry): T4 sequence (whole entry) with I153L, T181I
# Procedure, shortened: as §1
# [6] = system: T6, OR5H2
# T6 sequence (whole entry): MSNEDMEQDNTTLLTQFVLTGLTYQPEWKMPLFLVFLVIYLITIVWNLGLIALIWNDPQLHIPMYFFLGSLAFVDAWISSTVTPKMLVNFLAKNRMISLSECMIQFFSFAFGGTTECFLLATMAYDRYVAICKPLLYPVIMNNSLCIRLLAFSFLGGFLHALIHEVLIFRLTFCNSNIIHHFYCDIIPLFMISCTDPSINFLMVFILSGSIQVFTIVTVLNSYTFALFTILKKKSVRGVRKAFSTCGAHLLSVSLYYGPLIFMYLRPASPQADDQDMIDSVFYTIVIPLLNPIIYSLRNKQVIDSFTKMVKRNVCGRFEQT
# Procedure, shortened: as §1
# [7] = system: T7, OR5H2; remark: listed apart in the source
# T7 sequence (whole entry): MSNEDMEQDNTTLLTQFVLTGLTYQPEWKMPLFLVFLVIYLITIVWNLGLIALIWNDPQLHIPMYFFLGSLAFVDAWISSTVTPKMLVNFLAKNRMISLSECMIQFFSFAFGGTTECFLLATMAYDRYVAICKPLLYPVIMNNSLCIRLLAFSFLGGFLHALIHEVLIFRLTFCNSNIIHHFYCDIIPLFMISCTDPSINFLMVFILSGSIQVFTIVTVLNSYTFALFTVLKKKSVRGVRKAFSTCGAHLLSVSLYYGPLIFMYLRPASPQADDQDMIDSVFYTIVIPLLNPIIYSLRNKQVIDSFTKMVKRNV
# Procedure, shortened: as §1
# [8] = system: T8, OR5H6
# T8 sequence (whole entry): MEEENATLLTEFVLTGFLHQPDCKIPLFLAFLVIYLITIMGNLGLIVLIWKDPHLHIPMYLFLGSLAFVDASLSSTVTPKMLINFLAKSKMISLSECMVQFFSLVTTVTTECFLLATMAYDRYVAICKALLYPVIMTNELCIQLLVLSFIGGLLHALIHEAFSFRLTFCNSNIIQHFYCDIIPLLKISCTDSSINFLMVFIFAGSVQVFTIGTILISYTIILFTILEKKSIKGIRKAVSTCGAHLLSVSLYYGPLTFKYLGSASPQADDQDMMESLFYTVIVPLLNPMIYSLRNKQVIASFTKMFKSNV
# Procedure, shortened: as §1
# [9] = system: T9, OR5H6; remark: listed apart in the source
# T9 sequence (whole entry): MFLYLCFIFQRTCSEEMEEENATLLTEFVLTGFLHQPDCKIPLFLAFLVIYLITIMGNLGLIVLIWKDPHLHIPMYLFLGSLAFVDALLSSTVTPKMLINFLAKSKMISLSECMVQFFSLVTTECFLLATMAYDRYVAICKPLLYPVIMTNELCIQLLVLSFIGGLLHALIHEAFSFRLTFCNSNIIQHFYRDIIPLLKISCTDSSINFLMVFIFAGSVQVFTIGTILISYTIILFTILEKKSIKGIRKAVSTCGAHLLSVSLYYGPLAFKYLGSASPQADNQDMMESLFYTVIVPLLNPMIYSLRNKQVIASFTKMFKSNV
# Procedure, shortened: as §1
# [10] = target: T10, OR5I1 (Homo sapiens) (UniProt Q13606)
# T10 sequence (whole entry): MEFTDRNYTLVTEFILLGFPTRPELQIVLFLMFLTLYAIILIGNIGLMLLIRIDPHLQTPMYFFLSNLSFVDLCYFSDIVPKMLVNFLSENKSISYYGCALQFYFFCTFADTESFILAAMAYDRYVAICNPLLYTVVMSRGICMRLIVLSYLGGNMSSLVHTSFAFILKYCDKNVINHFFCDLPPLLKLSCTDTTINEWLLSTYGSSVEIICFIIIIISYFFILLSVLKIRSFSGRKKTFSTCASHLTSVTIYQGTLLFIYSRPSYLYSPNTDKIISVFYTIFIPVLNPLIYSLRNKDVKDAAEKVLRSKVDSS
# Procedure, shortened: as §1
# [11] = target: T11, OR5J2 (Homo sapiens) (UniProt Q8NH18)
# T11 sequence (whole entry): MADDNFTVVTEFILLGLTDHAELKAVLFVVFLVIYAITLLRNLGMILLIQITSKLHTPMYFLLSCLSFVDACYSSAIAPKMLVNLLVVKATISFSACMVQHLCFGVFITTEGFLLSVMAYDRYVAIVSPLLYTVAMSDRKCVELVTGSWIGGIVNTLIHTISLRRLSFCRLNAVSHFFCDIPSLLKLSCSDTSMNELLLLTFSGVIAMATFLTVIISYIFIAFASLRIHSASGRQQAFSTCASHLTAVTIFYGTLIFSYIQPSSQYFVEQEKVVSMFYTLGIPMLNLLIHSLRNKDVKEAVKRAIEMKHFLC
# Procedure, shortened: as §1
# 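Further: active if original authors judged signal statistically different from baseline.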
SMILES,odorant receptor agonist call [1],odorant receptor agonist call [2],odorant receptor agonist call [3],odorant receptor agonist call [4],odorant receptor agonist call [5],odorant receptor agonist call [6],odorant receptor agonist call [7],odorant receptor agonist call [8],odorant receptor agonist call [9],odorant receptor agonist call [10],odorant receptor agonist call [11]
O=C1CCCCC1,inactive,inactive,inactive,inactive,inactive,inactive,inactive,inactive,inactive,inactive,–
C=C(C)C1CCC2=CC(=O)CC(C)C2(C)C1 (stereo unspecified),–,–,–,–,–,–,–,–,–,–,inactive
CC(C)(O)CCCC1=CCC(C=O)CC1 (stereo unspecified),–,–,–,–,–,–,–,–,–,–,inactive
CC(=O)OC1CC2CCC1(C)C2(C)C (stereo unspecified),inactive,inactive,inactive,inactive,inactive,inactive,inactive,inactive,inactive,inactive,inactive
CC(C)CC(=O)O,inactive,inactive,inactive,inactive,inactive,inactive,inactive,inactive,inactive,inactive,inactive
CC(C)CCC(=O)O,inactive,inactive,inactive,inactive,inactive,inactive,inactive,inactive,inactive,inactive,inactive
CCCCCC(=O)O,inactive,inactive,inactive,inactive,inactive,inactive,inactive,inactive,inactive,inactive,inactive
O=C1CCCCCCCCCCCC(=O)OCCO1,inactive,inactive,inactive,inactive,inactive,inactive,inactive,inactive,inactive,inactive,inactive
CCC=CCCO,inactive,inactive,inactive,inactive,inactive,inactive,inactive,inactive,inactive,inactive,inactive
CCC1(O)C2(C)CCC(C2)C1(C)C (stereo unspecified),inactive,inactive,inactive,inactive,inactive,inactive,inactive,inactive,inactive,inactive,inactive
CCCCCCOC(=O)CCC,inactive,inactive,inactive,inactive,inactive,inactive,inactive,inactive,inactive,inactive,inactive
CC(C)=CCCC(C)=CC=O,inactive,inactive,inactive,inactive,inactive,inactive,inactive,inactive,inactive,inactive,inactive
CC(C)C(=O)O,inactive,inactive,inactive,inactive,inactive,inactive,inactive,inactive,inactive,inactive,inactive
CC(=O)OCC=C(C)CCC=C(C)C,inactive,inactive,active,inactive,inactive,inactive,inactive,inactive,inactive,inactive,active
CCCCO,inactive,inactive,inactive,inactive,inactive,inactive,inactive,inactive,inactive,inactive,inactive
CCCCCCCC=CC=O,active,inactive,inactive,active,inactive,inactive,inactive,active,inactive,inactive,inactive
C=CCc1ccc(OC)c(OC)c1,inactive,inactive,inactive,inactive,inactive,inactive,inactive,inactive,inactive,inactive,inactive
CC(=O)OC(C)(C)C1CC=C(C)CC1 (stereo unspecified),inactive,inactive,inactive,inactive,inactive,inactive,inactive,inactive,inactive,inactive,inactive
COc1ccccc1O,inactive,inactive,inactive,inactive,inactive,inactive,inactive,inactive,inactive,active,inactive
C=CCSCC=C,inactive,inactive,inactive,inactive,inactive,inactive,inactive,inactive,inactive,inactive,inactive
CC(C)(C)c1ccc(CCC=O)cc1,inactive,inactive,inactive,inactive,inactive,inactive,inactive,inactive,inactive,inactive,inactive
O=CCc1ccccc1,inactive,inactive,inactive,inactive,inactive,inactive,inactive,inactive,inactive,inactive,active
CC1COCc2cc3c(cc21)C(C)(C)C(C)C3(C)C (stereo unspecified),active,inactive,active,active,active,active,active,active,active,inactive,inactive
CC1=CCC(C(C)(C)O)CC1 (stereo unspecified),inactive,inactive,inactive,inactive,inactive,inactive,inactive,inactive,inactive,inactive,inactive
CCCCCCCCCCC=O,inactive,inactive,inactive,inactive,inactive,inactive,inactive,inactive,inactive,inactive,active
COc1cc(C=O)ccc1O,inactive,inactive,inactive,inactive,inactive,inactive,inactive,inactive,inactive,inactive,inactive
CC12C=CCC1C1CCC3=CC(=O)CCC3(C)C1CC2 (stereo unspecified),inactive,inactive,inactive,inactive,inactive,inactive,inactive,inactive,inactive,inactive,inactive

# Compounds above that have a COOH group (four):
SMILES,odorant receptor agonist call [1],odorant receptor agonist call [2],odorant receptor agonist call [3],odorant receptor agonist call [4],odorant receptor agonist call [5],odorant receptor agonist call [6],odorant receptor agonist call [7],odorant receptor agonist call [8],odorant receptor agonist call [9],odorant receptor agonist call [10],odorant receptor agonist call [11]
CC(C)CC(=O)O,inactive,inactive,inactive,inactive,inactive,inactive,inactive,inactive,inactive,inactive,inactive
CC(C)CCC(=O)O,inactive,inactive,inactive,inactive,inactive,inactive,inactive,inactive,inactive,inactive,inactive
CCCCCC(=O)O,inactive,inactive,inactive,inactive,inactive,inactive,inactive,inactive,inactive,inactive,inactive
CC(C)C(=O)O,inactive,inactive,inactive,inactive,inactive,inactive,inactive,inactive,inactive,inactive,inactive
